Results from cells or extracts need not show a direct contact. For some of these results: A negative result means that nothing was seen under these conditions.
Tests used:
Sp3 (Homo sapiens) = Sp3 (Homo sapiens) (UniProt Q02447); assay: EMSA; settings: HeLa NE, protein in an extract, protein details: HeLa nuclear extract, Promega, label: 32P
Sp1 (Homo sapiens) = Sp1 (Homo sapiens) (UniProt P08047); assay: EMSA; settings: HeLa NE, protein in an extract, protein details: HeLa nuclear extract, Promega, label: 32P

Amino acid sequences for entries named in this document (tags omitted). A change or cut given only in a name is not applied to a line headed by its entry. Residues count along the entry.
UniProt Q02447: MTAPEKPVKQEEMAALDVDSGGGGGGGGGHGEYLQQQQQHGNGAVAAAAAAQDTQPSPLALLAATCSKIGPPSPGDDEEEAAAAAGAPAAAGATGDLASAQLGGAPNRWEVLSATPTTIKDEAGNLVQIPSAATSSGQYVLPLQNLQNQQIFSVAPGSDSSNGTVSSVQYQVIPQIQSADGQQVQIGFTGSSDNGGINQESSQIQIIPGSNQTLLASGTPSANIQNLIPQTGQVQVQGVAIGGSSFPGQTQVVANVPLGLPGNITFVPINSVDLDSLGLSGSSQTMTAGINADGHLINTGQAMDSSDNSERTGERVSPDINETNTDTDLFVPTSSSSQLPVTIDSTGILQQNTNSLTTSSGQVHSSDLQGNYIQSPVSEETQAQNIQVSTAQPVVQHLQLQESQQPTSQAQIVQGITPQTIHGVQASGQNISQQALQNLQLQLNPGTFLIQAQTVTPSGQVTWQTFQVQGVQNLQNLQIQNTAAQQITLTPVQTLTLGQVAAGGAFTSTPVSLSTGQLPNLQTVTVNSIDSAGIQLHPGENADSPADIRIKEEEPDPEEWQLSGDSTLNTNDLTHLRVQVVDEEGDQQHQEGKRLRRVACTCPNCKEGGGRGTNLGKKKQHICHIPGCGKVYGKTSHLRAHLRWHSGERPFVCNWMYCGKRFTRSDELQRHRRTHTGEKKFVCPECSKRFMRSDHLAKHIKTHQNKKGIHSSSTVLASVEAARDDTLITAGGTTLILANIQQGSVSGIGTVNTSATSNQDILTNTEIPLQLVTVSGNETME
UniProt P08047, 2-785: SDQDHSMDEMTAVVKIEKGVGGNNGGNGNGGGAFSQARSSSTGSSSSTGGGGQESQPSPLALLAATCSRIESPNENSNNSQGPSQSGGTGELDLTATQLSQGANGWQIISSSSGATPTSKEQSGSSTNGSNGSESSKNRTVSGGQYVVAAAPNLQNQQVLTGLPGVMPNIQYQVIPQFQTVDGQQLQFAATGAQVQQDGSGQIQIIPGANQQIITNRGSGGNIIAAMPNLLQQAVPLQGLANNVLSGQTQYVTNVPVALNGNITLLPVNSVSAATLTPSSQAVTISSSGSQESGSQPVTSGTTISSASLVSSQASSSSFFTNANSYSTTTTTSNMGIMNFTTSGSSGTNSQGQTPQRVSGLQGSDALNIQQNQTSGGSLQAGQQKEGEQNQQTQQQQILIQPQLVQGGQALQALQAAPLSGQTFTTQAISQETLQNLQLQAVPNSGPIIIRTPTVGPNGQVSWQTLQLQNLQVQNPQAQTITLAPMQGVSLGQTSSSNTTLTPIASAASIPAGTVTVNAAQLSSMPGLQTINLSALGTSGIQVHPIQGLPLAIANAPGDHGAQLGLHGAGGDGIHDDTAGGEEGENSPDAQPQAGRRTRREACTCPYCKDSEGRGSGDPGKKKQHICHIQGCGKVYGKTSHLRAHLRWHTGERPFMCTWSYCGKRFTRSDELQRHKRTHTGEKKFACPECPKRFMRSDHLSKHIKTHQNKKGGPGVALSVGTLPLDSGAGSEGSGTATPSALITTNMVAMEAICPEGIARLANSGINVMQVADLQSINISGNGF

“ATTCGATCGGGGCGGGGCGAG (double strand) [consensus Sp1 probe]”: binds (Sp3 (Homo sapiens); Sp3 complex of different mobility from Sp1); binds (Sp1 (Homo sapiens)).

“GGAGATGGGGGCAGGGCTCTATCTGCCCCAGGCTTCCGTCC (double strand) [FR-alpha P4 promoter probe -89 to -50]”: no binding (Sp3 (Homo sapiens); Sp3 binding excluded by quantitative blocking with Sp1 antibody); binds (Sp1 (Homo sapiens); band blocked by Sp1 antibody).
